# PMC6639074
# By UniProt entry, the sequences of proteins in these tests, tags left out. Where a name states a change or a piece, a line headed by the entry shows the natural chain unless it says otherwise.
# UniProt P61019: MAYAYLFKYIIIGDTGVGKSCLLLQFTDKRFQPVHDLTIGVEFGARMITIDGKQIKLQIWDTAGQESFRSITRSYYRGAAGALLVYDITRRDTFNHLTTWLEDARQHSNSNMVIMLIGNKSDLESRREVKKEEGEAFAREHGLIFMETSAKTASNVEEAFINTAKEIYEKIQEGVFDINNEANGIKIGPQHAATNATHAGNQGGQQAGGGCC
# These are yes or no findings as the source states them, for the method shown. In cells and extracts the contact can be indirect. Here binding means that the protein was enriched with, or labelled near, the bait; the list need not be complete. For some assays here: Tags and fused reporters may be left off the sequences shown.
# Target: Rab2A(Q65L)-BirA*-HA-MAO (human) (UniProt P61019)
# Test: proximity labelling; MitoID: GTPase-BirA*-HA-MAO chimera on mitochondria of transiently transfected HEK293T cells, 50 uM biotin 18 h, streptavidin beads, mass spectrometry, biological triplicates; hits by WD scores and volcano plots against the GDP-locked forms
row,Binder,binding
1,"FAM184A (protein, UniProt Q8NB25 1-1140) MATPGMSWQQHYYGGSAAKFAPSPATAQLAGHSMDYSQEMHLKMSKKIAQLTKVIYALNTKNDEHESAIQALKDAHEEEIQQILAETREKILQYKSKVTEELDLRRKIQVLESSLEDHIKMKQQALTEFEAYKHRVEDMQLCAEAQHVQRIVTMSREVEEIRRKFEEKLRSFGQLQVQFEKDKRLALEDLQAAHRREIQELLKSQQDHSASVNKGQEKAEELHRMEVESLNKMLEELRLERKKLIEDYEGKLNKAQSFYERELDTLKRSQLFTAESLQASKEKEADLRKEFQGQEAILRKTIGKLKTELQMVQDEAGSLLDKCQKLQTALAIAENNVQVLQKQLDDAKEGEMALLSKHKEVESELAAARERLQQQASDLVLKASHIGMLQATQMTQEVTIKDLESEKSRVNERLSQLEEERAFLRSKTQSLDEEQKQQILELEKKVNEAKRTQQEYYERELKNLQSRLEEEVTQLNEAHSKTLEELAWKHHMAIEAVHSNAIRDKKKLQMDLEEQHNKDKLNLEEDKNQLQQELENLKEVLEDKLNTANQEIGHLQDMVRKSEQGLGSAEGLIASLQDSQERLQNELDLTKDSLKETKDALLNVEGELEQERQQHEETIAAMKEEEKLKVDKMAHDLEIKWTENLRQECSKLREELRLQHEEDKKSAMSQLLQLKDREKNAARDSWQKKVEDLLNQISLLKQNLEIQLSQSQTSLQQLQAQFTQERQRLTQELEELEEQHQQRHKSLKEAHVLAFQTMEEEKEKEQRALENHLQQKHSAELQSLKDAHRESMEGFRIEMEQELQTLRFELEDEGKAMLASLRSELNHQHAAAIDLLRHNHHQELAAAKMELERSIDISRRQSKEHICRITDLQEELRHREHHISELDKEVQHLHENISALTKELEFKGKEILRIRSESNQQIRLHEQDLNKRLEKELDVMTADHLREKNIMRADFNKTNELLKEINAALQVSLEEMEEKYLMRESKPEDIQMITELKAMLTERDQIIKKLIEDNKFYQLELVNRETNFNKVFNSSPTVGVINPLAKQKKKNDKSPTNRFVSVPNLSALESGGVGNGHPNRLDPIPNSPVHDIEFNSSKPLPQPVPPKGPKTFLSPAQSEASPVASPDPQRQEWFARYFTF",binds
2,"BLZF1/golgin45 (protein, UniProt Q9H2G9 1-400) MTTKNLETKVTVTSSPIRGAGDGMETEEPPKSVEVTSGVQSRKHHSLQSPWKKAVPSESPGVLQLGKMLTEKAMEVKAVRILVPKAAITHDIPNKNTKVKSLGHHKGEFLGQSEGVIEPNKELSEVKNVLEKLKNSERRLLQDKEGLSNQLRVQTEVNRELKKLLVASVGDDLQYHFERLAREKNQLILENEALGRNTAQLSEQLERMSIQCDVWRSKFLASRVMADELTNSRAALQRQNRDAHGAIQDLLSEREQFRQEMIATQKLLEELLVSLQWGREQTYSPSVQPHSTAELALTNHKLAKAVNSHLLGNVGINNQKKIPSTVEFCSTPAEKMAETVLRILDPVTCKESSPDNPFFESSPTTLLATKKNIGRFHPYTRYENITFNCCNHCRGELIAL",binds

# Second part, the binder after the results:
row,binding,Binder
1,binds,"USO1/p115 (protein, UniProt O60763 1-962) MNFLRGVMGGQSAGPQHTEAETIQKLCDRVASSTLLDDRRNAVRALKSLSKKYRLEVGIQAMEHLIHVLQTDRSDSEIIGYALDTLYNIISNEEEEEVEENSTRQSEDLGSQFTEIFIKQQENVTLLLSLLEEFDFHVRWPGVKLLTSLLKQLGPQVQQIILVSPMGVSRLMDLLADSREVIRNDGVLLLQALTRSNGAIQKIVAFENAFERLLDIISEEGNSDGGIVVEDCLILLQNLLKNNNSNQNFFKEGSYIQRMKPWFEVGDENSGWSAQKVTNLHLMLQLVRVLVSPTNPPGATSSCQKAMFQCGLLQQLCTILMATGVPADILTETINTVSEVIRGCQVNQDYFASVNAPSNPPRPAIVVLLMSMVNERQPFVLRCAVLYCFQCFLYKNQKGQGEIVSTLLPSTIDATGNSVSAGQLLCGGLFSTDSLSNWCAAVALAHALQENATQKEQLLRVQLATSIGNPPVSLLQQCTNILSQGSKIQTRVGLLMLLCTWLSNCPIAVTHFLHNSANVPFLTGQIAENLGEEEQLVQGLCALLLGISIYFNDNSLESYMKEKLKQLIEKRIGKENFIEKLGFISKHELYSRASQKPQPNFPSPEYMIFDHEFTKLVKELEGVITKAIYKSSEEDKKEEEVKKTLEQHDNIVTHYKNMIREQDLQLEELRQQVSTLKCQNEQLQTAVTQQVSQIQQHKDQYNLLKIQLGKDNQHQGSYSEGAQMNGIQPEEIGRLREEIEELKRNQELLQSQLTEKDSMIENMKSSQTSGTNEQSSAIVSARDSEQVAELKQELATLKSQLNSQSVEITKLQTEKQELLQKTEAFAKSVEVQGETETIIATKTTDVEGRLSALLQETKELKNEIKALSEERTAIKEQLDSSNSTIAILQTEKDKLELEITDSKKEQDDLLVLLADQDQKILSLKNKLKDLGHPVEEEDELESGDQEDEDDESEDPGKDLDHI"
2,binds,"STAMBPL1 (protein, UniProt Q96FJ0 1-436) MDQPFTVNSLKKLAAMPDHTDVSLSPEERVRALSKLGCNITISEDITPRRYFRSGVEMERMASVYLEEGNLENAFVLYNKFITLFVEKLPNHRDYQQCAVPEKQDIMKKLKEIAFPRTDELKNDLLKKYNVEYQEYLQSKNKYKAEILKKLEHQRLIEAERKRIAQMRQQQLESEQFLFFEDQLKKQELARGQMRSQQTSGLSEQIDGSALSCFSTHQNNSLLNVFADQPNKSDATNYASHSPPVNRALTPAATLSAVQNLVVEGLRCVVLPEDLCHKFLQLAESNTVRGIETCGILCGKLTHNEFTITHVIVPKQSAGPDYCDMENVEELFNVQDQHDLLTLGWIHTHPTQTAFLSSVDLHTHCSYQLMLPEAIAIVCSPKHKDTGIFRLTNAGMLEVSACKKKGFHPHTKEPRLFSICKHVLVKDIKIIVLDLR"
3,binds,"ICA1 (protein, UniProt Q05084 1-483) MSGHKCSYPWDLQDRYAQDKSVVNKMQQKYWETKQAFIKATGKKEDEHVVASDADLDAKLELFHSIQRTCLDLSKAIVLYQKRICFLSQEENELGKFLRSQGFQDKTRAGKMMQATGKALCFSSQQRLALRNPLCRFHQEVETFRHRAISDTWLTVNRMEQCRTEYRGALLWMKDVSQELDPDLYKQMEKFRKVQTQVRLAKKNFDKLKMDVCQKVDLLGASRCNLLSHMLATYQTTLLHFWEKTSHTMAAIHESFKGYQPYEFTTLKSLQDPMKKLVEKEEKKKINQQESTDAAVQEPSQLISLEEENQRKESSSFKTEDGKSILSALDKGSTHTACSGPIDELLDMKSEEGACLGPVAGTPEPEGADKDDLLLLSEIFNASSLEEGEFSKEWAAVFGDGQVKEPVPTMALGEPDPKAQTGSGFLPSQLLDQNMKDLQASLQEPAKAASDLTAWFSLFADLDPLSNPDAVGKTDKEHELLNA"

# Target: Rab11A(S25N)-BirA*-HA-MAO (human)
# Test: as above
row,binding,Binder
1,binds,"CHML (protein, UniProt P26374 1-656) MADNLPTEFDVVIIGTGLPESILAAACSRSGQRVLHIDSRSYYGGNWASFSFSGLLSWLKEYQQNNDIGEESTVVWQDLIHETEEAITLRKKDETIQHTEAFCYASQDMEDNVEEIGALQKNPSLGVSNTFTEVLDSALPEESQLSYFNSDEMPAKHTQKSDTEISLEVTDVEESVEKEKYCGDKTCMHTVSDKDGDKDESKSTVEDKADEPIRNRITYSQIVKEGRRFNIDLVSKLLYSQGLLIDLLIKSDVSRYVEFKNVTRILAFREGKVEQVPCSRADVFNSKELTMVEKRMLMKFLTFCLEYEQHPDEYQAFRQCSFSEYLKTKKLTPNLQHFVLHSIAMTSESSCTTIDGLNATKNFLQCLGRFGNTPFLFPLYGQGEIPQGFCRMCAVFGGIYCLRHKVQCFVVDKESGRCKAIIDHFGQRINAKYFIVEDSYLSEETCSNVQYKQISRAVLITDQSILKTDLDQQTSILIVPPAEPGACAVRVTELCSSTMTCMKDTYLVHLTCSSSKTAREDLESVVKKLFTPYTETEINEEELTKPRLLWALYFNMRDSSGISRSSYNGLPSNVYVCSGPDCGLGNEHAVKQAETLFQEIFPTEEFCPPPPNPEDIIFDGDDKQPEAPGTNNVVMAKLESSEESKNLESPEKHLQN"
2,binds,"SH3BP5L (protein, UniProt Q7L8J4 1-393) MAELRQVPGGRETPQGELRPEVVEDEVPRSPVAEEPGGGGSSSSEAKLSPREEEELDPRIQEELEHLNQASEEINQVELQLDEARTTYRRILQESARKLNTQGSHLGSCIEKARPYYEARRLAKEAQQETQKAALRYERAVSMHNAAREMVFVAEQGVMADKNRLDPTWQEMLNHATCKVNEAEEERLRGEREHQRVTRLCQQAEARVQALQKTLRRAIGKSRPYFELKAQFSQILEEHKAKVTELEQQVAQAKTRYSVALRNLEQISEQIHARRRGGLPPHPLGPRRSSPVGAEAGPEDMEDGDSGIEGAEGAGLEEGSSLGPGPAPDTDTLSLLSLRTVASDLQKCDSVEHLRGLSDHVSLDGQELGTRSGGRRGSDGGARGGRHQRSVSL"
3,binds,"SH3BP5 (protein, UniProt O60239 1-455) MDAALKRSRSEEPAEILPPARDEEEEEEEGMEQGLEEEEEVDPRIQGELEKLNQSTDDINRRETELEDARQKFRSVLVEATVKLDELVKKIGKAVEDSKPYWEARRVARQAQLEAQKATQDFQRATEVLRAAKETISLAEQRLLEDDKRQFDSAWQEMLNHATQRVMEAEQTKTRSELVHKETAARYNAAMGRMRQLEKKLKRAINKSKPYFELKAKYYVQLEQLKKTVDDLQAKLTLAKGEYKMALKNLEMISDEIHERRRSSAMGPRGCGVGAEGSSTSVEDLPGSKPEPDAISVASEAFEDDSCSNFVSEDDSETQSVSSFSSGPTSPSEMPDQFPAVVRPGSLDLPSPVSLSEFGMMFPVLGPRSECSGASSPECEVERGDRAEGAENKTSDKANNNRGLSSSSGSGGSSKSQSSTSPEGQALENRMKQLSLQCSKGRDGIIADIKMVQIG"
